# In the supplement of paper PMC8866396:
# ± gives the standard deviation of the averaged measurements. This is one part of the list. Single values are uncertain here, since repeats match poorly.
# Tested on: IL-6-GFP PC-9GR
# Test: IL-6-GFP fluorescence relative to DMSO control (fraction of control); higher = more IL-6-GFP expression
# Details: compound concentration: 10 uM; treatment time: 48 h
# Experimental: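 IL-6-GFP-overexpressing PC-9 and PC-9GR EGFR-mutant lung cancer cells (3000 cells/well, 96-well) were treated for 48 h with each compound of the Selleck L2000 library at 10 uM. IL-6-GFP fluorescence was read on a high-content screening system, and viability by CCK-8 absorbance on a parallel plate set. Each value was normalised as compound well / DMSO control well; two independent replicates.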
row,Compound,IL-6-GFP fluorescence
1,O=P1(NCCCl)OCCCN1CCCl (configuration not stated) [Ifosfamide],1.01 ± 0.079
2,CCC1(O)C(=O)OCc2c1cc1n(c2=O)Cc2cc3ccccc3nc2-1 (configuration not stated) [Camptothecin],0.803 ± 0.11
3,CC12CCC3c4ccc(OC(=O)N(CCCl)CCCl)cc4CCC3C1CCC2OP(=O)([O-])[O-].[Na+].[Na+] (configuration not stated) [Estramustine phosphate sodium],1.04 ± 0.24
4,O=c1c2ccccc2[se]n1-c1ccccc1 [Ebselen],0.97 ± 0.43
5,NC(Cc1ccc(N(CCCl)CCCl)cc1)C(=O)O (configuration not stated) [Melphalan],0.874 ± 0.095
6,CN(C)NC(=O)CCC(=O)O [Daminozide],0.51 ± 0.46
7,Cc1cccc(C(C)c2c[nH]cn2)c1C.Cl (configuration not stated) [Medetomidine HCl],0.909 ± 0.12
8,COc1cc2c(cc1O)CC1c3c(cc(O)c(OC)c3-2)CCN1C (configuration not stated) [Boldine],0.8442 ± 0.0055
9,C=CCN1CC(C(=O)N(CCCN(C)C)C(=O)NCC)CC2c3cccc4[nH]cc(c34)CC21 (configuration not stated) [Cabergoline],0.925 ± 0.059
10,CCC1=CC2CN3CCc4c([nH]c5ccccc45)C(C(=O)OC)(C2)C13 (configuration not stated) [Catharanthine],0.996 ± 0.12
11,CC(C)(C)NCC(O)c1ccccc1Cl.Cl (configuration not stated) [Tulobuterol hydrochloride],0.86 ± 0.011
12,CC1CCC2N(C1)CC1C3CC4C(CC(O)C5CC(O)CCC54C)C3CCC1C2(C)O (configuration not stated) [Peimine],0.817 ± 0.086
13,O=C(O)c1nn(Cc2ccc(Cl)cc2Cl)c2ccccc12 [Lonidamine],1.05 ± 0.45
14,CC(C)C12OC1C1OC13C1(C)CCC4=C(COC4=O)C1CC1OC13C2O (configuration not stated) [Triptolide (PG490)],0.899 ± 0.034
15,COc1cc2c(c(OC)c1OC)-c1ccc(OC)c(=O)cc1C(NC(C)=O)CC2 (configuration not stated) [Colchicine],0.845 ± 0.18
16,COC1=CC2C3Cc4ccc(OC)c(O)c4C2(CCN3C)CC1=O (configuration not stated) [Sinomenine],0.726 ± 0.16

row,Compound,IL-6-GFP fluorescence
1,COc1cc(C2c3cc4c(cc3C(O)C3COC(=O)C23)OCO4)cc(OC)c1OC (configuration not stated) [Picropodophyllin (PPP)],1.08 ± 0.031
2,Cn1c(CCCC(=O)O)nc2cc(N(CCCl)CCCl)ccc21 [Bendamustine],0.874 ± 0.072
3,COC(=O)CC(O)(CCC(C)(C)O)C(=O)OC1C(OC)=CC23CCCN2CCc2cc4c(cc2C13)OCO4 (configuration not stated) [Harringtonine],1.28 ± 0.37
4,O.O=P1(N(CCCl)CCCl)NCCCO1 (configuration not stated) [Cyclophosphamide Monohydrate],0.78 ± 0.29
5,CC(C)[N+](C)(CCC(C(N)=O)(c1ccccc1)c1ccccc1)C(C)C.[I-] [Isopropamide Iodide],0.901 ± 0.081
6,CCC1(O)C(=O)OCc2c1cc1n(c2=O)Cc2c-1nc1ccccc1c2CCNC(C)C.Cl (configuration not stated) [Belotecan (CKD-602) hydrochloride],1.09 ± 0.082
7,CC12CCC3C(CCC4=C(O)C(=O)CCC43C)C1CCC2=O (configuration not stated) [Formestane],0.768 ± 0.29
8,c1ccc2c(c1)Sc1ccccc1N2CC1CN2CCC1CC2 (configuration not stated) [Mequitazine],0.973 ± 0.42
9,O=C(O)C1C2CCC(O2)C1C(=O)[O][Na] (configuration not stated) [Sodium Demethylcantharidate],0.996 ± 0.34
10,O=C(O)CCCc1ccc(N(CCCl)CCCl)cc1 [Chloroambucil],0.59 ± 0.09
11,Cn1cc(C2=C(c3cn(C4CCN(Cc5ccccn5)CC4)c4ccccc34)C(=O)NC2=O)c2ccccc21,1.11 ± 0.19
12,Cc1c(N)nc(C(CC(N)=O)NCC(N)C(N)=O)nc1C(=O)NC(C(=O)NC(C)C(O)C(C)C(=O)NC(C(=O)NCCc1nc(-c2nc(C(=O)NCCC[S+](C)C)cs2)cs1)C(C)O)C(OC1OC(CO)C(O)C(O)C1OC1OC(CO)C(O)C(OC(N)=O)C1O)c1c[nH]cn1.O=S(=O)([O-])O (configuration not stated) [Bleomycin sulfate],1.09 ± 0.016
13,Cl.Cn1c(CCCC(=O)O)nc2cc(N(CCCl)CCCl)ccc21 [Bendamustine HCl],0.9408 ± 0.0084
14,CC(C)C12OC1C1OC13C1(C)CCC4=C(COC4=O)C1CC1OC13C2=O (configuration not stated) [Triptonide],1.36 ± 0.38
15,CC1CC(=O)CC2CCC3C4CCC(O)C4(C)CCC3C12C (configuration not stated) [Mesterolone],0.919 ± 0.076
16,COC1=CC2C3Cc4ccc(OC)c(O)c4C2(CCN3C)CC1=O.Cl (configuration not stated) [Sinomenine hydrochloride],0.947 ± 0.023

# Shown with bars between the fields: part of the list above
row | Compound | IL-6-GFP fluorescence
3 | COC(=O)CC(O)(CCC(C)(C)O)C(=O)OC1C(OC)=CC23CCCN2CCc2cc4c(cc2C13)OCO4 (configuration not stated) [Harringtonine] | 1.28 ± 0.37
4 | O.O=P1(N(CCCl)CCCl)NCCCO1 (configuration not stated) [Cyclophosphamide Monohydrate] | 0.78 ± 0.29
5 | CC(C)[N+](C)(CCC(C(N)=O)(c1ccccc1)c1ccccc1)C(C)C.[I-] [Isopropamide Iodide] | 0.901 ± 0.081
6 | CCC1(O)C(=O)OCc2c1cc1n(c2=O)Cc2c-1nc1ccccc1c2CCNC(C)C.Cl (configuration not stated) [Belotecan (CKD-602) hydrochloride] | 1.09 ± 0.082
7 | CC12CCC3C(CCC4=C(O)C(=O)CCC43C)C1CCC2=O (configuration not stated) [Formestane] | 0.768 ± 0.29
8 | c1ccc2c(c1)Sc1ccccc1N2CC1CN2CCC1CC2 (configuration not stated) [Mequitazine] | 0.973 ± 0.42
9 | O=C(O)C1C2CCC(O2)C1C(=O)[O][Na] (configuration not stated) [Sodium Demethylcantharidate] | 0.996 ± 0.34
10 | O=C(O)CCCc1ccc(N(CCCl)CCCl)cc1 [Chloroambucil] | 0.59 ± 0.09
11 | Cn1cc(C2=C(c3cn(C4CCN(Cc5ccccn5)CC4)c4ccccc34)C(=O)NC2=O)c2ccccc21 | 1.11 ± 0.19
